PubChem BioAssay AID2685 (National Center for Advancing Translational Sciences (NCATS), 2010)
The campaign covered roughly 320,000 compounds. About 2,100 (0.66%) were called active. Inconclusive means that the source gave no clear call. Such entries were picked first, then a sample of the others. Calls follow the shape of the dose curve; as a rule, active = well fitted inhibition curve with a large enough effect in the signal ratio, with a control signal flat (not every such curve was filed as active); inconclusive = small, poorly fitted or top-dose-only effect, or effect the other way, or a change in a side signal; inactive = flat fitted curve, though single readings scatter; the % refers to the signal ratio. Where the call is inconclusive, the potency comes from a doubtful curve fit.

Test: qHTS Assay for Lipid Storage Modulators in Drosophila S3 Cells
Conditions: BODIPY lipid droplet fluorescence, 18-24 h, cells fed with added oleic acid; lipid storage change, negative = inhibition: at 46.1 µM (top of the series) unless noted
Method in brief: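 Drosophila S3 cells loaded with oleic acid (400 uM, as added) and compounds at several concentrations; lipid droplets imaged by 488-nm laser-scanning cytometry, 500–530 nm intensity and object ratio to cell channel. Percent activity normalized to 20 uM Triacsin C.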
% is scaled to controls: 0 for no effect and ±100 for the full control effect; potency is read from the fitted curve at half-maximal effect.

SMILES | lipid storage change, negative = inhibition | Potency
CC(=O)Nc1c(O)nc(SCC(=O)Nc2c(C)cccc2C)[nH]c1=O | inconclusive: -6.22% | –
Cc1c(C(=O)O)cccc1-c1ccc(/C=C2/NC(=O)N(c3ccccc3)C2=O)o1 | inconclusive: 0.51% | –
Nc1nc(SCC(=O)NCCCO)nc2sc3c(c12)CCC3 | inconclusive: 8.97% | –
COc1cc(C2C(C(=O)c3ccc(C)o3)=C(O)C(=O)N2c2cc(C)on2)ccc1OCc1ccccc1 (configuration not stated) | – | inconclusive: 32.6 µM [falling, single point]
CCN(CC(=O)Nc1c(F)cccc1F)C(=O)c1ccc(S(=O)(=O)NCc2ccco2)cc1 | inconclusive: -14.8% | –
COc1cc(OC)nc(NC(=O)CN2CCN(c3ccc(F)cc3)CC2)n1 | inconclusive: 54.5% | –
CN(Cc1cccnc1)C(=O)c1ccc(Cl)c(NS(=O)(=O)c2ccc(F)cc2)c1 | inconclusive | –
COc1ccc(CNC(=O)CCCNS(=O)(=O)c2cccc3nonc23)cc1 | inconclusive: 13.1% | –
Cc1ccc(C(=O)Nc2cccc(C(=O)N3CCN(C)CC3)c2)cc1 | inconclusive: 36.5% | –
Cc1nc(SCCC(C)C)c([N+](=O)[O-])[nH]1 | inconclusive: 7.97% | –
Oc1ccc(CN2CCc3ccccc3C2)c2cccnc12 | inconclusive: 64.8% | –
COc1ccc(C)cc1NC(=O)C1CCN(C(=O)C2CC(=O)N(c3ccc(C)cc3)C2)CC1 (configuration not stated) | – | inconclusive: 18.4 µM [activator, single point]
O=C(CCC(=O)N(CC(=O)NC1CCCC1)Cc1ccc2c(c1)OCO2)Nc1ccccn1 | inconclusive: 35.2% | –
C=CCNc1sc(C(=O)c2ccc(Br)s2)c(N)c1C#N | – | inconclusive: 1.3 µM [rising, full curve]
COc1ccc(C(=O)Nc2ccccc2-c2ccccc2)cc1Cl | – | inconclusive: 0.82 µM [activator, single point]
CC(NC(=O)C(=O)NN=C1CCCC1)c1ccccc1 (configuration not stated) | – | inconclusive: 0.103 µM [falling, full curve, poor fit]
Cc1cccc(C(=O)NCC(=O)OCC(=O)N2CC3(C)CC2CC(C)(C)C3)c1 (configuration not stated) | inconclusive: 191% | –
COc1cccc(/C=C/c2n[nH]c(=O)c(C#N)c2C)c1 | inconclusive: -15.3% | –
CCOC(=O)c1cc(=O)n(-c2ccc(Cl)cc2C)[nH]1 | – | inconclusive: 7.31 µM [activator, partial curve, poor fit]
COc1ccc(C(=O)N(C(C)C)C(C)C)c(OC)c1 | inconclusive: 47.4% | –
O=C(NNc1c2ccccc2nc2ccccc12)C(O)c1ccccc1 (configuration not stated) | inconclusive: -83.4% | –
O=C(CCC(=O)c1ccc(Oc2ccccc2)cc1)Nc1cccc(Cl)c1Cl | inconclusive: 8.13% | –
CC(C)(C)n1nnnc1C(c1ccccc1F)N1CCN(C2CCCC2)CC1 (configuration not stated) | inconclusive: -7.93% | –
CCc1nnc(NC(=O)c2ccc(F)c(S(=O)(=O)N3CCCCC3)c2)s1 | inconclusive: -100% | –

SMILES | lipid storage change, negative = inhibition | Potency
C=CCNC(=O)c1ccc(N(Cc2ccc(Cl)cc2)S(C)(=O)=O)cc1 | – | inconclusive: 0.92 µM [falling, full curve, poor fit]
Cn1c(=NC(=O)CCS(=O)(=O)c2ccccc2)sc2cc(F)ccc21 | inconclusive: 4.22% | –
Cc1cccc(-c2n[nH]c([N+](=O)[O-])n2)c1 | inconclusive: -7.96% | –
COc1cc(/C=N/NC(=O)CC#N)ccc1Oc1nc(Cl)ncc1F | inconclusive: 25.9% | –
COC(=O)c1nc(Cl)c(Cl)c(N)c1Cl | inconclusive: -8.69% | –
O=C(COC(=O)c1nsc(Cl)c1Cl)NC1CCCC1 | – | inconclusive: 5.17 µM [activator, full curve]
CCC(C)[C@H](NS(=O)(=O)c1ccc(C)cc1)C(=O)N1CCC(C(=O)N2CCC(C(N)=O)CC2)CC1 (some centres not stated) | inconclusive: 154% | –
Cc1nc(N2CCN(C)CC2)c2sc(=S)n(C)c2n1 | inconclusive: 88.6% | –
C#CCOCCOCCOCCNc1nc(N2CCN(C(=O)CCCCCCCCCCNC(=O)Cn3cc(C[C@@H](C)O)nn3)CC2)nc(N2CCN(C(=O)CCCCCCCCCCNC(=O)[C@H](CCCCN)n3cc(CCCC(=O)O)nn3)CC2)n1 | – | inconclusive: 29.1 µM [falling, single point]
Cc1oc(-c2ccc(Cl)cc2)nc1CS(=O)CC(=O)NC1CC1 (configuration not stated) | inconclusive: 65.1% | –
Cn1c(=O)n(C)c2cc(NC(=O)c3cccc([N+](=O)[O-])c3)c(Br)cc21 | – | inconclusive: 0.326 µM [activator, full curve, poor fit]
COc1cccc(-c2c(C(=O)N/N=C(\C)c3ccncc3)nnn2-c2nonc2N)c1 | inconclusive: 7.14% | –
CCOC(=O)C1=C(C)NC(SCC(=O)Nc2nc(C)cs2)=C(C#N)C1c1cccs1 (configuration not stated) | – | inconclusive: 0.092 µM [falling, full curve, poor fit]
CCN(/N=C/c1ccc(Cl)cc1)c1cc(=O)n(C)c(=O)[nH]1 | inconclusive: 4.02% | –
CCN1CCN(S(=O)(=O)c2ccc(Cl)c(C(=O)NC(C)(C)C)c2)CC1 | inconclusive: -7.92% | –
CCC[N+]1(CC#CC(O)(c2ccccc2)C2CCCCC2)CCCCC1 (configuration not stated) | inconclusive: 12.1% | –
CC1CCC(NC(=O)c2cc(C3CC3)nn2-c2ccccc2)CC1 (configuration not stated) | inconclusive: -51.2% | –
COc1ccc(C(=O)Oc2cc(N)n(S(=O)(=O)c3ccccc3)n2)cc1 | inconclusive: -16.9% | –
CCN1CCN(c2cc(C)c3cc(NC(=S)N4CC(C)CC(C)C4)ccc3n2)CC1 (configuration not stated) | inconclusive: 19.4% | –
Cc1[nH]c(=O)[nH]c(=O)c1S(=O)(=O)N1CCCC(C(=O)NCc2ccc3c(c2)OCO3)C1 (configuration not stated) | – | inconclusive: 4.11 µM [rising, single point]
COc1nnc(-c2ccc(N3CCOCC3)c(NC(=O)c3ccco3)c2)c2ccccc12 | – | inconclusive: 0.517 µM [activator, single point]
O=C(Oc1ccc(Cl)cc1)c1ccc2nccnc2c1 | – | inconclusive: 29.1 µM [cytotoxic, single point]
CCCOc1ccc(N2C(=O)CC(NCc3cccs3)C2=O)cc1 (configuration not stated) | inactive | –

3 structures from above, arranged by count of non-hydrogen atoms, smallest number first:
SMILES | lipid storage change, negative = inhibition | Potency
Cc1c(C(=O)O)cccc1-c1ccc(/C=C2/NC(=O)N(c3ccccc3)C2=O)o1 | inconclusive: 0.51% | –
CCN1CCN(c2cc(C)c3cc(NC(=S)N4CC(C)CC(C)C4)ccc3n2)CC1 (configuration not stated) | inconclusive: 19.4% | –
CCC(C)[C@H](NS(=O)(=O)c1ccc(C)cc1)C(=O)N1CCC(C(=O)N2CCC(C(N)=O)CC2)CC1 (some centres not stated) | inconclusive: 154% | –
